{"source": "PubChem BioAssay AID504582", "about": "(Broad Institute, 2011)", "note": "The campaign covered roughly 340,000 compounds. About 2,300 (0.68%) were called active. Inconclusive results, whose numbers are uncertain, are shown with a selection of clear calls. Cut-off read from the data, not from the text of the source: active = growth rescue above about 28% (passing the limit was not always enough); inconclusive = no clear call, values can overlap the other calls.", "data": [{"assay": "rescue of yeast from PfHsp40 toxicity, primary screen, S. cerevisiae, ATP luminescence (AID 504582);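 note: yeast W303a lacking pdr1 and pdr3 grown in galactose medium; growth measured after three days at 30 °C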", "details": "S. cerevisiae expressing PfHsp40, growth rescue, at 12.5 µM, stronger effect = higher value", "values": [{"smiles": "CC(=O)Oc1ccc(C)cc1N1C(=O)c2ccc(C(=O)O)cc2C1=O", "growth rescue": "active: 103%"}, {"smiles": "CCc1ccc(C(=O)Nc2nc3ccccc3[nH]2)cc1", "growth rescue": "inconclusive: 27.2%"}, {"smiles": "COc1ccc(C(=O)CC(=O)C(=O)Nc2ccc(C)cc2Cl)cc1", "growth rescue": "inactive: -1.31%"}, {"smiles": "Cc1ccc(S(=O)(=O)Nc2cc(C(F)(F)F)ccc2N2CCOCC2)c(C)c1", "growth rescue": "inconclusive: 31.2%"}, {"smiles": "COc1ccccc1C1CCN(C(=S)Nc2ccc(Br)cc2)CC1", "growth rescue": "active: 41.2%"}, {"smiles": "COc1ccc(Nc2nc(N3CCCC3)c3ccccc3n2)cc1", "growth rescue": "inactive: 0.829%"}, {"smiles": "COc1ccccc1NC(=O)COn1nnc2ccc(S(=O)(=O)N3CCOCC3)cc21", "growth rescue": "inconclusive: 30.3%"}, {"smiles": "CCOCCCN(Cc1ccco1)C(=O)c1cc2c(=O)[nH]c3ccc(C)cc3c2s1", "growth rescue": "inactive: 0.187%"}, {"smiles": "O=C(c1ccccc1)c1nc2ccccc2n(CCCn2c(=O)c(C(=O)c3ccccc3)nc3ccccc32)c1=O", "growth rescue": "inactive: -1.4%"}, {"smiles": "Cc1cc(N/N=C/c2ccc(O)c(C)c2O)nc(-c2ccccc2O)n1", "growth rescue": "active: 72.6%"}, {"smiles": "COc1cccc(C2CC(c3ccc(C)cc3)Nc3nc(N)nn32)c1", "note": "(stereo unspecified)", "growth rescue": "inactive: -0.48%"}, {"smiles": "O=C(COc1ccc(Cl)cc1)c1ccc(O)cc1O", "growth rescue": "inconclusive: 27.4%"}, {"smiles": "CC(=O)c1cccc(NC(=O)CCC2CCCC2)c1", "growth rescue": "inconclusive: 47.2%"}, {"smiles": "CCOC(=O)CSc1nnc(CSc2nc3sc4c(c3c(=O)[nH]2)CCC4)n1-c1ccccc1", "growth rescue": "inactive: 0.646%"}, {"smiles": "Cc1cc(C(=O)NCc2ccccc2)c(=O)[nH]c1C", "growth rescue": "inactive: -1.41%"}, {"smiles": "Nc1nc(N)c2ncc(C(=O)CCc3ccccc3)nc2n1", "growth rescue": "inconclusive: 37.9%"}, {"smiles": "CCOc1ccc(S(=O)(=O)Nc2ccc(F)cc2)c(C)c1C", "growth rescue": "inconclusive: 29.9%"}, {"smiles": "COc1ccc(/C(C)=N/NC(=S)NCCc2ccccc2)cc1", "growth rescue": "inconclusive: 29.4%"}, {"smiles": "C#Cc1ccc([C@@H]2C=C(C(=O)NC3CC3)O[C@H](OCc3ccc(CO)cc3)C2)cc1", "growth rescue": "inconclusive: 59.6%"}, {"smiles": "Cc1cccc(N2CCN(CC(=O)N(C)Cc3ccccc3)CC2C)c1", "note": "(stereo unspecified)", "growth rescue": "active: 43.6%"}, {"smiles": "CCc1sc(N(C(=O)Cc2ccccc2)c2ccc(F)cc2)nc1-c1ccccc1", "growth rescue": "inactive: -2.04%"}, {"smiles": "CCCCCc1ccc(C(=O)CCCC)c(=S)[nH]1", "growth rescue": "inconclusive: 25.7%"}, {"smiles": "CC(=O)NC(c1ccc(Cl)cc1)c1ccc2cccnc2c1O", "note": "(stereo unspecified)", "growth rescue": "inconclusive: 172%"}, {"smiles": "O=C(NCc1ccccn1)Nc1cccc(Cl)c1", "growth rescue": "inconclusive: 39.9%"}, {"smiles": "Fc1cccc2sc(Nc3nnc(-c4ccco4)o3)nc12", "growth rescue": "active: 74.1%"}, {"smiles": "CC(=O)Nc1ncnc2c1c(-c1ccc(Cl)cc1)nn2C(C)(C)C", "growth rescue": "inconclusive: 246%"}]}]}
